The experiment has as its target CLIC5 (in CL4 cells) (UniProt Q8BXK9). Put plainly: co-IP; CL4 cells transfected; immunoprecipitation with HA antibody, western blot to detect Myc-taperin. (In general: A western blot detects proteins with antibodies after separation by electrophoresis.)

By UniProt entry, the sequences of proteins in these tests, tags left out.
UniProt Q8BXK9: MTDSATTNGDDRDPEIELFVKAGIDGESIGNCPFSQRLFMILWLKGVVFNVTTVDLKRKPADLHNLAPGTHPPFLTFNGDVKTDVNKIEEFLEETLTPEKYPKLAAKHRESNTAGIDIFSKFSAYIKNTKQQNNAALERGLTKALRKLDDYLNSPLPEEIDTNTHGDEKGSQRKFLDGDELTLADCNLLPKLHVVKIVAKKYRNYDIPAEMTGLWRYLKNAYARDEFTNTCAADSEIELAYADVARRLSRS

Results are given in words; binding and its absence hold for the method and conditions named. Binding seen in cells or lysates may run through a third protein. Some entries that bind do so weakly or less than the wild type. Sequences can lack the tags named with a protein.

This note sets out measurements from article PMC4898930.

B1: Myc-taperin (protein, UniProt A2AI08 1-749)
chain: MAGLGRLDPGPRTVMPAWKREILERRRAKLAALSGGQGSGAAPDGPNERLVLAESLGPLSQNPFMRLESERRRGTRPAQQLLELYCRVPGVRTIRADNILIIESAPGFPPAVPPAAGIRAAEVVVYEAPQPGRVSRLLEKFDSPAAPCRRGSPERFRPALPQLPVASASAATRTPTNRSLAPASPVRLSQPAPPISPVPVAQRAGQRSACCEPAHPDGTAGPGARRSDFLQKTGSNSFTVHPRGLPRSAVNRSLSNGPMTQESPTGPANGLSGSPPVPGKWKPKVESKEPSLHPPPSPGTPSATSVGPPAFPAPSPASATPSQRQWVSSATSANDSFEIRPSSKPDMETIPIGDLQARALANLRVNSRNSFVLIPKRKAPGNYPLAGRQFEEPKGEVGWASQSQGLGSQLVSTVDGAPALEKSPLAAEMQWAVRKGACPRPAISDTDKCVRWQRPASPPPFLPATAEAEPAEGLGVPGLAKNGQEPVRPGLPVTFIDEVDSEEEAFQEAKLPSSAVGVPSQYHLHPARPGHTSELLNRGSNTFTVVPKRKPGTLQEPHLSQTNGQSQQGAEEQDAESLSGPHTTLENTLKKRYPTVHEIEVIGGYLALQKSCLIKAGSSRKKMKISFNDKSLHTTFEYPSESSLAQEEAEEEEEEEGEEDGEEEEVGPDSEKPFTVFLPRATFVSSVGPESSSGLSSYTPKHSMAFSKWQEQTLVQTPTDVELPPKEVMLTPASQNDLSDFRSEPALYF
With B1, the binding entry was “binds”.
